The values are deposited in ChEMBL (CHEMBL3988442, “University of Dundee, Small-Polar-MMV Screening Library” (2021)).

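Viability assay of Plasmodium falciparum sporozoites; the read-out is not stated. The concentration is filed as 10 mM, unlikely as a test dose, so the dose is not known. The record gives no direction; compounds that gave an IC50 in retests scored well above the rest, so higher reads as lower viability. Strong results were mostly tested again. About 34,000 compounds were tested under these conditions; 0.84% (about 280) showed 50% or more at least once.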

Results are given as percent effect.
The record does not define 0% and 100%; most values in the screen are far below 50% and negative numbers occur (in some assays of this library far below -100).
This is an unselected part of the compounds tested.
Two or more numbers in one place are separate tests of the same structure; such repeats can differ widely.

{"compound": "Cc1nnc(CN2CCC3(CCC(=O)N([C@H]4CC[C@H](O)CC4)C3)CC2)o1", "Percent Effect": "-14.4 & -15.23"}
{"compound": "CC(C)c1nc2n(n1)CC(NCc1nnc(C3CC3)o1)CC2", "stereo": "stereo not drawn", "Percent Effect": 6.439}
{"compound": "Nc1cc2c(nn1)CCN(C(=O)CCc1ccc3c(c1)OCO3)C2", "Percent Effect": -27.2}
{"compound": "CN(C)Cc1cnc2n1CCN(C(=O)C1CC=CC1)CC2", "Percent Effect": 15.72}
{"compound": "CCN(CC)CCn1c(=O)oc2ccccc21.Cl", "Percent Effect": "10.01 & 6.259"}
{"compound": "Cc1nn(C)c(C)c1NC(=O)CN1CCc2c(nc(C(C)C)n2C)C1", "Percent Effect": -12.59}
{"compound": "CC(CCc1ccccc1)NC(=O)Nc1cnn(CC(N)=O)c1", "stereo": "stereo not drawn", "Percent Effect": 5.012}
{"compound": "Cc1cc(N2CCC(O)(CN(C)C(=O)CCN)CC2)c2cnccc2n1", "Percent Effect": 2.854}
{"compound": "COc1ccc(CN2CCCC3(CCN(c4ccsc4)C3=O)C2)cc1.O=C(O)C(F)(F)F", "stereo": "stereo not drawn", "Percent Effect": -10.27}
{"compound": "COCCC(=O)N1CCC(c2ncncc2-c2ccnc(N)c2)C1", "stereo": "stereo not drawn", "Percent Effect": 6.01}
{"compound": "CCc1nnc2n1CCN(Cc1ccc(C(=O)N3CCCC3)cc1)C2", "Percent Effect": 8.438}
{"compound": "Cn1c(Cn2ccnc2)nnc1C1CCN(C(=O)C2(C)CC2)CC1", "Percent Effect": -9.074}
{"compound": "CNC(=O)c1cccnc1NCCOc1ccc(CC#N)cc1", "Percent Effect": -17.63}
{"compound": "CC(=O)N1CCC2(CC1)C(=O)N(CC1CC1)c1ccccc12", "Percent Effect": 2.421}
{"compound": "O=C(O)C(F)(F)F.[H][C@@]12CN(CC3CCC3)C[C@]1([H])OCCN2c1cnccn1", "Percent Effect": 2.277}
{"compound": "CN1CC(C)(C)CN(C(=O)CCc2ccccc2)CC1=O", "Percent Effect": -28.88}
{"compound": "CN(C)C(=O)c1cncnc1-c1ccc(CNC(=O)C2CC2)cc1", "Percent Effect": 1.203}
{"compound": "CC(C)COCC(NC(=O)c1ccncc1)c1ccco1", "stereo": "stereo not drawn", "Percent Effect": 2.189}
{"compound": "CCN(CC)CC(=O)N(C)C(c1cccc(F)c1)c1ccccn1", "stereo": "stereo not drawn", "Percent Effect": 6.035}
{"compound": "O=C(O)C(F)(F)F.[H][C@@]12CCN(CCOCc3ccccc3)C[C@@]1([H])[C@H](C(=O)N(C)C)CCO2", "Percent Effect": 5.998}
{"compound": "NS(=O)(=O)Cc1ccc(CNC(=O)NCC2CCOC2)cc1", "stereo": "stereo not drawn", "Percent Effect": -5.78}
{"compound": "Cc1ccc(C)c(C(=O)NCC(c2cccn2C)N2CCCCCC2)c1", "stereo": "stereo not drawn", "Percent Effect": "36.97 & -6.26 & -3.764"}
{"compound": "CCOCC1CN(C(=O)c2ccncc2)Cc2nn(C)cc21.O=C(O)C(F)(F)F", "stereo": "stereo not drawn", "Percent Effect": -1.19}
{"compound": "Cc1nn(C)c(C)c1CC(=O)N1CCCC(n2cccn2)C1", "stereo": "stereo not drawn", "Percent Effect": -1.222}
{"compound": "c1ccc2c(N3CCSCC3)cnnc2c1", "Percent Effect": 5.005}
{"compound": "O=C(O)C(F)(F)F.[H][C@]12CCC[C@@H](CNc3ccccn3)[C@@]1([H])CN(Cc1cccnc1)C2", "Percent Effect": 8.684}
{"compound": "COCC1CN(C(=O)Cc2cccs2)Cc2c1cnn2C", "stereo": "stereo not drawn", "Percent Effect": 7.378}
{"compound": "Cc1cc(NC(=O)CN2CCCC2Cn2nc(C)nc2C)n(C)n1", "stereo": "stereo not drawn", "Percent Effect": 2.424}
{"compound": "O=C(O)C(F)(F)F.O=C(c1ccncc1F)N1CC2CC1(C(=O)N1CCCC1)C2", "Percent Effect": -2.014}
{"compound": "O=C(O)C(F)(F)F.[H][C@@]12OCCN(Cc3ccoc3)[C@@]1([H])CC[C@H]2OCC1CCOCC1", "Percent Effect": -4.943}
{"compound": "CCc1nsc(N2CCCN(CC(=O)N(C)C3CC3)CC2)n1", "Percent Effect": -17.73}
{"compound": "COc1cccc(-c2nc(C)c(C(=O)NC(CO)CCSC)s2)c1", "stereo": "stereo not drawn", "Percent Effect": -17.98}
{"compound": "CCCN1C(=O)CC2(CCCNC2)C1=O.Cl", "stereo": "stereo not drawn", "Percent Effect": 15.58}
{"compound": "CN(C)Cc1cn(-c2ccccc2C(=O)NCCC2CCCN2C)cn1", "stereo": "stereo not drawn", "Percent Effect": 1.219}
{"compound": "CCCn1nc(C)c(CNC(=O)C2COc3c(cccc3OC)C2)c1C", "stereo": "stereo not drawn", "Percent Effect": -3.835}
{"compound": "Cc1nn(C)c(C)c1CC(=O)N1CCC(N(C)c2cccnn2)CC1", "Percent Effect": 4.617}
{"compound": "CCN1CCc2nc(N3CCOCC3)nc(NC(C)C)c2C1", "Percent Effect": -2.17}
{"compound": "Cc1cc(CN2CCC3(CC2)C(=O)NCCN3CC2CC2)oc1C", "Percent Effect": -0.5945}
{"compound": "Cc1nn(C)cc1-c1cc(C(=O)NCC(C)(C)c2cccc(F)c2)n[nH]1", "Percent Effect": -0.9712}
{"compound": "COc1ccc(CS(=O)(=O)CC(=O)NCC2CC2)cc1F", "Percent Effect": -10.71}
{"compound": "O=C(O)c1cc(S(=O)(=O)Nc2ccccc2)cc2c1OCCO2", "Percent Effect": 3.634}
{"compound": "O=C(O)C(F)(F)F.O=C(c1ccc[nH]1)N1CCCn2c(CNC3CCC3)nnc2C1", "Percent Effect": 0.5673}

The last 5 entries again:

| Compound | Percent Effect |
|---|---|
| `Cc1cc(CN2CCC3(CC2)C(=O)NCCN3CC2CC2)oc1C` | -0.5945 |
| `Cc1nn(C)cc1-c1cc(C(=O)NCC(C)(C)c2cccc(F)c2)n[nH]1` | -0.9712 |
| `COc1ccc(CS(=O)(=O)CC(=O)NCC2CC2)cc1F` | -10.71 |
| `O=C(O)c1cc(S(=O)(=O)Nc2ccccc2)cc2c1OCCO2` | 3.634 |
| `O=C(O)C(F)(F)F.O=C(c1ccc[nH]1)N1CCCn2c(CNC3CCC3)nnc2C1` | 0.5673 |